The experiment addresses Protein A-Protein G fused DddA (pAG-DddA, His-tagged). The experiment is described as follows: pull-down.

No constants are given. Whether binding was seen depends on the method and setting. Binding seen in cells or lysates may run through a third protein. Some entries that bind do so weakly or less than the wild type.

B1: immunity protein DddAI (protein)
chain: MYADDFDGEIEIDEVDSLVEFLSRRPAFDANNFVLTFEESGFPQLNIFAKNDIAVVYYMDIGENFVSKGNSASGGTEKFYENKLGGEVDLSKDCVVSKEQMIEAAKQFFATKQRPEQLTWSEL
Consider B1, for which the binding result was “binds”.
